Values from PubChem BioAssay AID1671195 (Yale University, 2021).
The whole screen tested about 22,000 reagents; below is a part drawn at random. About 1,510 of them (6.9%) were called active. 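Active includes knockdowns raising or lowering LDL uptake; positive z-scores mean more uptake, negative mean less.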

- Assay: 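Knockdowns that increase or decrease uptake of fluorescent LDL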 (primary screen)
- System: human Huh7 hepatoma cells
- Reagents: siRNA pool against human genes, 18 nM
- Timing: about 2 to 2.5 days of knockdown, then 8 h LDL uptake
- Challenge: DiI-labelled LDL at 30 µg/ml for 8 h, in lipoprotein-deficient serum medium
- Measured: 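Per-cell DiI-LDL intensity by automated imaging; well means scaled to the plate median and given as a robust z-score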
- Direction: robust z-score: higher = more LDL uptake after knockdown
- Active means: 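Active when two or more replicates show a robust z-score above 2 or below -2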

target gene	robust z-score, replicate 1	robust z-score, replicate 2	robust z-score, replicate 3	activity call
NELL2	1.07	1.96	-0.329	inactive
SPAG4	-0.827	1.25	-0.288	inactive
DEFB134	1.14	1.34	0.983	inactive
PAQR5	-0.639	0.615	-0.322	inactive
DIPK2B	-0.638	-1.32	-0.602	inactive
NRCAM	-1.14	-0.286	0.656	inactive
ADRA2C	-0.00603	0.891	-0.256	inactive
CACNB2	2.51	0.234	1.61	inactive
TBC1D1	-0.244	-0.458	-0.216	inactive
KCNN3	-1.91	-2.49	-1.97	active
LOC441805 (retired record)	0.942	0.0317	0.213	inactive
STARD10	0.705	0.719	0.0517	inactive
BNC2	0.934	0.424	1.2	inactive
RBMXL1	-0.374	-0.286	-0.512	inactive
EVI2A	2.3	2.47	2.8	active
USP26	-0.513	-0.765	-0.0846	inactive
GPR4	0.978	1.15	0.63	inactive
EMC3-AS1	-1.25	-1.48	-1.19	inactive
BAD	-0.697	-0.652	-0.49	inactive
ZG16	-0.909	0.479	0.633	inactive
C8orf33	0.155	0.559	0.629	inactive
HLA-DPB1	-1.31	-0.365	-0.86	inactive
GSTA4	-0.491	1.63	-0.295	inactive
CLCN7	0.642	0.149	1.57	inactive
CLDN15	0.497	0.435	0.387	inactive
TTC3	1.02	1.01	0.668	inactive
NUP54	1.54	1.32	1.66	inactive
FAM174C	-1.22	0.963	-0.435	inactive
EDN3	0.15	2.13	0.61	inactive
PRDX1	-0.0236	-1.03	-0.111	inactive
TMEM97	-0.85	-0.203	-1.71	inactive
CFAP251	2.41	2.23	1.21	active
SEC23B	0.815	0.968	0.974	inactive
DISP3	-1.69	-2.29	-0.311	inactive
LOC389841 (retired record)	1.82	1.54	1.2	inactive
ZNF431	0.0161	0.355	-0.321	inactive
DEAF1	0.562	-0.651	0.468	inactive
SNRNP48	-0.142	-0.958	-0.489	inactive
OTX2	-0.734	-0.39	-1.58	inactive
TRAF5	-0.321	-0.955	-0.328	inactive
DNAI7	-0.0819	1.26	-0.468	inactive
EIF4E	-1.06	-0.924	-0.786	inactive
AWAT2	0.419	0.201	0.117	inactive
UFL1	-1.35	0.75	-1.98	inactive
MCM2	-0.785	-0.673	-0.252	inactive
OR56B4	-0.714	-0.843	-1.49	inactive
LOC388171 (retired record)	-0.569	-0.302	0.217	inactive
HEMK1	-0.725	-0.918	-0.493	inactive
TAOK2	0.725	-0.092	0.49	inactive
SH2D2A	1.22	-1.9	-0.84	inactive
CLCN4	-0.231	-0.107	0.024	inactive
EYA2	0.284	0.0732	-0.456	inactive
NNAT	-1.13	-1.46	-0.72	inactive
RBL2	-0.291	0.326	-0.533	inactive
CATSPERD	-0.421	-0.215	-0.36	inactive
SPACDR	1.64	1.6	1.25	inactive
KAT2A	-1.37	-0.211	-1.21	inactive
HOXA13	0.38	-0.0256	-0.493	inactive
DUSP23	0.941	0.617	1.87	inactive
DYNLT5	0.0893	0.576	0.204	inactive
FGF11	-0.075	-0.333	0.0439	inactive
CD99L2	-0.341	0.0433	-0.0498	inactive
ATP6V0A4	-0.32	-0.689	-0.0606	inactive
GIGYF1	0.485	1.52	2.74	inactive
SLC30A1	0.662	0.346	0.907	inactive
LOC441629 (retired record)	-0.0906	0.0203	-0.239	inactive
LOC400099 (retired record)	0.265	-0.348	-0.423	inactive
TXNDC15	-0.414	-0.16	-0.418	inactive
LOC440552 (retired record)	1.57	1.13	1.06	inactive
TFCP2	-0.437	-0.033	-0.554	inactive
BPHL	1.31	1.7	2.79	inactive
NDUFAF1	-1.76	-0.368	-0.766	inactive
BAG5	-0.768	-0.732	-0.555	inactive
RIPPLY1	-1.35	-1.42	-0.618	inactive
PSMC2	-0.142	-0.333	-0.77	inactive
EIF4G1	-0.237	-0.378	0.0175	inactive
OR8H1	0.657	0.65	0.816	inactive
TOP6BL	-2.03	-2.29	-1.86	active
JAKMIP1-DT	-0.605	-0.117	-0.362	inactive
ARHGAP25	-1.56	-0.915	1.1	inactive
ASXL2	-0.266	-0.518	-1.64	inactive
CPNE4	-0.228	-0.344	-0.466	inactive
CHCHD6	1.17	1.71	0.327	inactive
INTS7	3.13	4.54	3.19	active
ZDHHC3	1.12	0.223	0.851	inactive
RGS9BP	-0.382	0.276	0.948	inactive
MFSD8	0.592	0.777	0.47	inactive
